Patent EP1541166B1, “Preventing cell death using segments of neural thread proteins” (NYMOX CORPORATION, priority 2001, dated 2007)
Not every detail of the peptide structures is certain; ends, links or a residue may be inferred. Ends that are not written are not given here.

System: live tissue containing AD7C-NTP
Experiment: Prevention/inhibition of AD7C-NTP-induced necrosis of live tissue by Harlil sequences injected with AD7C-NTP into rats, histopathology
Type: in vivo
Settings: injected together with AD7C-NTP 100 ng/mL-10 µg/mL, 24 hours, compared to control samples injected with AD7C-NTP alone
Protocol: AD7C-NTP was obtained as described above in Example 1.
The Harlil sequences NTP-1, NTP-3, and NTP-7 prepared in accordance with Example 2 above were used in this example.
Recombinant AD7C-NTP samples 100 ng/mL-10 µg/mL were incubated at room temperature for 5 minutes to one hour with the aforementioned Harlil sequences and then injected into rats as described in Example 1.
Alternatively, a solution of the Harlil sequence was made up in concentrations ranging from 1 microgram/mL to 1 milligram/mL. Solutions containing the recombinant AD7C-NTP also were made up as described above, without the addition of the Harlil sequence. The animals were injected with about 100 microliters of the AD7C-NTP solution, and with about 100 microliters of the Harlil solution.
The 24 individual foci of infiltration were excised, fixed in 10% formalin, embedded in paraffin, and stained and examined by standard histopathological methods.
Similar groups of control rats were injected with (1) AD7C-NTP alone as described in Example 1, (2) bovine serum albumin in saline, (3) normal human serum, and (4) physiological saline, and examined and sacrificed as above, with the excised foci of injection treated as above.

Sequence	reduction in tissue necrosis
DNTHHARLIL [NTP-7, D N T H H A R L I L]	over 95%
CARYRTGHHARLM [NTP-3, C A R Y R T G H H A R L M]	over 95%
